Source: PubChem BioAssay AID504444 (National Center for Advancing Translational Sciences (NCATS), 2011)
In all, about 360,000 compounds went through this assay and about 7,500 (2.1%) were called active. The shares of active, inactive and inconclusive entries below differ from those in the screen. The call rests on the fitted dose curve; in most records, active means well fitted inhibition curve with a large enough effect; inconclusive means small, poorly fitted or top-dose-only effect, or effect the other way; inactive means flat fitted curve, though single readings scatter. A potency beside an inconclusive call is a rough fit, not a confirmed value.

test: Nrf2 qHTS screen for inhibitors; settings: A549 ARE-Fluc reporter, luciferase luminescence, 18-24 h; activity change, negative = inhibition: at 46 µM (top of the series); further: nearly all actives have a fitted effect of over 60% in size
In short: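 Reporter: ARE-Fluc in A549. Exposure: 18-24 h, 37 °C, 5% CO2, 5% FBS OPTI-MEM. Readouts: fluorescent cytotoxicity (CellTiter-Fluor), then luminescent Nrf2 signal after BugLite.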
On the % scale 0 is the no-effect control and ±100 the full control effect; potency means the concentration at half of the fitted maximal effect.

SMILES	Potency	activity change, negative = inhibition
Cc1ccc(/C=N/Nc2ccc3ccccc3n2)o1	inconclusive: 14.6 µM [activator, partial curve]	–
Cc1cc(C)c(C)c(N=Nc2nc3ccccc3n2C)c1C	inconclusive: 1.84 µM [activator, full curve]	–
OCCCn1c(C2CCCN2c2nc(-c3ccc(F)cc3)cs2)nc2cc(C(F)(F)F)ccc21 (stereo unspecified)	inconclusive: 29.1 µM [activator, single point]	–
COc1cccc(CNC(=O)c2cc(S(=O)(=O)N3CCOCC3)cn2C)c1	inconclusive: 13 µM [falling, partial curve]	–
CCc1ccc(S(=O)(=O)c2nnn3c2nc(N2CCN(c4ccccc4)CC2)c2cc(Cl)ccc23)cc1	–	inactive: 4.65%
S=C(Nc1nc2c(s1)CCCC2)NC1CC1	inconclusive: 14.6 µM [activator, partial curve]	–
CCc1c(C)c2ccc(O)c(CN3CCN(c4cc(Cl)ccc4C)CC3)c2oc1=O	inconclusive: 16.4 µM [activator, single point]	–
CCN(CC(O)CON=C1c2ccccc2-c2ccccc21)S(=O)(=O)c1ccc(C)cc1 (stereo unspecified)	active: 20.6 µM	–
S=c1[nH]nc(-c2ccncc2)n1/N=C/C=C/c1ccccc1	inconclusive: 2.06 µM [falling, full curve]	–
O=C(Nc1ccccn1)c1ccc(-c2ccccc2)cc1	inconclusive: 14.6 µM [falling, single point]	–
CCCc1[nH]n(-c2ccc([N+](=O)[O-])cc2)c(=O)c1C(C)=NCc1ccncc1	inconclusive: 23.1 µM [falling, partial curve]	–
CCCCn1c(NC(=O)c2ccccc2)nc2ccccc21	inconclusive: 29.1 µM [falling, single point]	–
CCCCOc1ccccc1C1CC(=O)Nc2ccc3ccccc3c21 (stereo unspecified)	inconclusive: 25.9 µM [falling, single point]	–
CCc1nc(CN(C)C(=O)C2CCC(=O)N(Cc3cccc(F)c3)C2)no1 (stereo unspecified)	–	inactive: 0.788%
CCN1CCCC1CNCc1ccc(OCc2ccc(Cl)nc2)c(OC)c1 (stereo unspecified)	inconclusive: 9.2 µM [activator, partial curve]	–
COc1cc(OC)cc(C(=O)NNC(=S)Nc2ccc(S(N)(=O)=O)cc2)c1	inconclusive: 18.4 µM [activator, single point]	–
CCOc1ccc(CNC(=O)c2oc3c(c2C)-c2nn(Cc4cccc(Cl)c4)cc2CC3)cc1	–	inactive: 3.76%
CCCc1c(C(=O)N/N=C/c2cccc3ccccc23)nnn1-c1nonc1N	inconclusive: 32.6 µM [falling, single point]	–
O=C(c1ccc2[nH]c(=O)c(=O)[nH]c2c1)N1CCN(c2ccccc2)CC1	inconclusive: 29.1 µM [activator, single point]	–
CCC(=NCc1ccccc1)c1c(C(F)(F)F)[nH]n(-c2nc3ccccc3s2)c1=O	inconclusive: 1.84 µM [falling, partial curve, poor fit]	–
O=C(/C=C/c1cccs1)Nc1nccs1	inconclusive: 2.59 µM [activator, full curve]	–
CCN(CC)CCNC(=O)c1ccc(NC(=O)c2cn(-c3ccc(F)cc3)nc2-c2cccc(OC)c2)cc1	–	inactive: 2.45%

SMILES	Potency	activity change, negative = inhibition
NC(=O)c1c(N)sc2c1CCCC2	–	inactive: 2.59%
O=[N+]([O-])c1ccc(O)c(Nc2c([N+](=O)[O-])ccc3nonc23)c1	inconclusive: 18.4 µM [falling, single point]	–
CC(=O)Nc1ccc(NC(=O)CCCc2c[nH]c3ccccc23)cc1	inconclusive: 20.6 µM [activator, single point]	–
O=S(=O)(c1ccccc1)c1cnn(-c2ccccc2)c1-c1ccc(F)cc1	inconclusive: 16.4 µM [falling, single point]	–
CCCCCCC(=O)Nc1ccc2nc3c(=O)n(C)c(=O)n(C)c3nc2c1C	–	inactive: 8.96%
O=C1CCCN1CCC(=O)N1CCCC(CO)(Cc2ccccc2)C1 (stereo unspecified)	inconclusive: 3.66 µM [activator, full curve]	–
COCCCNC(=O)c1sc2ncn(CC(=O)Nc3ccc(C)c(Cl)c3)c(=O)c2c1C	inconclusive: 29.1 µM [activator, single point]	–
CCOC(=O)c1ccc(N2C(=O)c3n[nH]c(-c4ccco4)c3C2c2ccc(C(=O)OC)cc2)cc1 (stereo unspecified)	inconclusive: 29.1 µM [falling, single point]	–
CCCn1nnnc1NCc1ccccc1OCc1ccc(F)cc1	inconclusive: 20.6 µM [falling, partial curve]	–
O=C(c1ccc2c(c1)N(Cc1ccc(Cl)cc1)C(=O)c1ccccc1S2(=O)=O)N1CCCC1	–	inactive: -6.92%
O=C(NNc1ccccc1Cl)C(O)(c1cccc(C(F)(F)F)c1)c1cccc(C(F)(F)F)c1	inconclusive: 20.6 µM [falling, single point]	–
O=C(CSc1ncc(-c2ccccc2)[nH]1)Nc1ccccc1	inconclusive: 9.2 µM [falling, partial curve]	–
CCOc1ccc(NS(=O)(=O)c2c(C)nc3sc(C)c(C)n3c2=O)cc1	inconclusive: 32.6 µM [falling, single point]	–
CC(C)(C)c1ccc(C(=O)CCCSC2=C(C#N)C(c3ccco3)C3=C(CCCC3=O)N2)cc1 (stereo unspecified)	active: 20.6 µM	–
O=C(CSc1nc2ccccc2[nH]1)Nc1ccccc1F	inconclusive: 5.8 µM [falling, full curve, poor fit]	–
CC1CCN(S(=O)(=O)c2ccc(C(=O)Nc3nnc(-c4ccco4)o3)cc2)CC1	active: 8.2 µM	–
O=C(CCC1N=C2c3ccccc3N=C(SCC(=O)Nc3cccc(Cl)c3)N2C1=O)NCc1ccco1 (stereo unspecified)	–	inactive: -13.6%
CCCCN(CC)C(=O)c1cccc(Cl)c1	inconclusive: 29.1 µM [activator, partial curve, poor fit]	–
CCOc1ccc2c(c1)C(=NNC(=O)c1ccncc1)c1cc(OCC)ccc1-2	active: 5.8 µM	–
CC(=O)Oc1ccc(/C=C2/Oc3ccccc3C2=O)cc1	–	inactive: -3.84%
Cc1ccnc(NC(=O)c2ccccc2NC(=O)C(C)(C)C)c1	inconclusive: 20.6 µM [falling, single point]	–
Cc1ccc2nc(/C=C/c3cccc(F)c3)ccc2c1	inconclusive: 16.4 µM [activator, partial curve]	–

Copied from the list:
Potency with O=C(CSc1nc2ccccc2[nH]1)Nc1ccccc1F is entered as inconclusive: 5.8 µM [falling, full curve, poor fit]
Potency with Cc1ccnc(NC(=O)c2ccccc2NC(=O)C(C)(C)C)c1 is entered as inconclusive: 20.6 µM [falling, single point]
Potency with CCCCN(CC)C(=O)c1cccc(Cl)c1 is entered as inconclusive: 29.1 µM [activator, partial curve, poor fit]
activity change, negative = inhibition with O=C(c1ccc2c(c1)N(Cc1ccc(Cl)cc1)C(=O)c1ccccc1S2(=O)=O)N1CCCC1 is entered as inactive: -6.92%

The list continues:

SMILES	Potency	activity change, negative = inhibition
Cc1cn2c(nc(=O)c3cccnc32)s1	–	inactive: -29.4%
CCN(CC(=O)NCc1cccs1)C(=O)c1ccc(NS(=O)(=O)c2cccc([N+](=O)[O-])c2)cc1	inconclusive: 20.6 µM [falling, single point]	–
COc1ccc(NCC(=O)N/N=C/C(C)c2ccccc2)cc1 (stereo unspecified)	inconclusive: 20.6 µM [activator, partial curve, poor fit]	–
CCOC(=O)c1cnc2ccc(C(=O)OC)cc2c1NCCN1CCOCC1	–	inactive: 10.3%
CCOC(=O)C1CCN(C(=O)c2cc3sc(C)cc3n2C)CC1	inconclusive: 13 µM [activator, single point]	–
CN(Cc1ccccc1)S(=O)(=O)c1cccc2cccnc12	–	inactive: -2.7%
O=C1c2ccccc2C(=O)N1CCCCc1cn(C[C@H]2CC[C@H](Cn3cc(CCCCN4C(=O)c5ccccc5C4=O)nn3)O2)nn1	inconclusive: 16.4 µM [falling, single point]	–
Cc1ccc(NC(=O)CC(C)CC2=NS(=O)(=O)c3ccccc3N2)cc1 (stereo unspecified)	inconclusive: 29.1 µM [falling, single point]	–
COc1cccc(-c2c(C#N)c(N)nc3c2c(C)nn3-c2ccccc2)c1O	active: 25.9 µM	–
COCCn1c(=S)[nH]c2sc3c(c2c1=O)CCC(C)C3 (stereo unspecified)	inconclusive: 25.9 µM [falling, partial curve, poor fit]	–
Cc1ccc(S(=O)(=O)N(C)S(=O)(=O)c2ccc(C)cc2)cc1	active: 23.1 µM	–
COc1cc(CNn2c(C)n[nH]c2=S)cc(Br)c1OCC(=O)NC(C)(C)C	inconclusive: 11.6 µM [falling, partial curve]	–
COc1ccc(C)cc1NC(=O)CN1CCN(S(=O)(=O)c2ccc3ccccc3c2)CC1	inconclusive: 9.2 µM [falling, partial curve, poor fit]	–
COCCCn1c(=O)c2sccc2n2c(CCCC(=O)NCc3cccc(OC)c3)nnc12	inconclusive: 10.3 µM [activator, partial curve, poor fit]	–
CC(C)c1ccc(NC(=O)CSc2n[nH]c(=O)n2-c2ccc3c(c2)OCCO3)cc1	inconclusive: 0.231 µM [activator, partial curve, poor fit]	–
CCOP(=O)(OCC)C(NC(=O)c1cccs1)c1ccccc1 (stereo unspecified)	inconclusive: 23.1 µM [falling, single point]	–
CC1c2cc3c(cc2CCN1CC(=O)Nc1ccc(S(=O)(=O)N2CCCC2)cc1)OCCCO3 (stereo unspecified)	inconclusive: 23.1 µM [falling, partial curve, poor fit]	–
Nc1nc(NCc2ccccc2)c2[nH]cnc2n1	inconclusive: 11.6 µM [activator, partial curve]	–
CCCCNc1c(-c2ccc(SC3CCCCC3)cc2)nc2cnccn12	–	inactive: 16.3%
Cc1cc(=O)oc2cc(OCC(=O)N3CC[C@@]4(O)CCCC[C@H]4C3)c(Cl)cc12	inconclusive: 20.6 µM [falling, single point]	–
O=C(c1ccc(Cn2c(=O)[nH]c3ccccc3c2=O)cc1)N1CCN(c2ccccn2)CC1	inconclusive: 20.6 µM [falling, single point]	–
O=C1c2oc3ccccc3c(=O)c2C(c2cccnc2)N1Cc1ccco1 (stereo unspecified)	inconclusive: 5.8 µM [activator, partial curve, poor fit]	–
